{"source": "patent US20240390406A1", "about": "“PHOSPHORYLATED TRISTETRAPROLIN AS A BIOMARKER AND THERAPEUTIC TARGET FOR ANTIAGING DRUGS” (King Faisal Specialist Hospital & Research Centre, priority 2023, published 2024)", "key": {"p53": {"tested_on": "p53", "assay": "p53 senescence marker in LPS-induced senescent THP-1 macrophages", "assay_type": "cell-based", "conditions": "human macrophages from PMA-differentiated THP-1 cells, 1 μM dasatinib, LPS to induce senescence"}, "phosphorylated TTP": {"tested_on": "phosphorylated TTP", "assay": "TTP phosphorylation (western blot) in LPS-stimulated THP-1 cells / PMA-differentiated THP-1 macrophages", "assay_type": "cell-based, human", "conditions": "for TTP phosphorylation / phosphorylated TTP abundance: FIG. 1, THP-1 monocytic cells or PMA-differentiated THP-1 cells, 1 μM dasatinib for 1 hr, then 1 μg/ml LPS"}}, "note": "At least one compound was matched to its structure with a doubt left."}
{"smiles": "Cc1nc(Nc2ncc(C(=O)Nc3c(C)cccc3Cl)s2)cc(N2CCN(CCO)CC2)n1", "note": "[dasatinib]", "values": [{"measurement": "P53, a senescence biomarker", "setting": "p53", "value": "also reduced"}, {"measurement": "P53, a senescence biomarker", "setting": "p53; listed as Dasatinib", "value": "reduction of p53"}, {"measurement": "TTP phosphorylation / phosphorylated TTP abundance", "setting": "phosphorylated TTP", "value": "reduces TTP phosphorylation"}, {"measurement": "TTP phosphorylation / phosphorylated TTP abundance", "setting": "phosphorylated TTP; listed as Dasatinib", "value": "considerable reduction in TTP phosphorylation"}, {"measurement": "pTTP", "setting": "phosphorylated TTP; FIG. 2, human macrophages from PMA-differentiated THP-1 cells, 1 μM dasatinib, LPS overnight to induce senescence", "value": "reduces pTTP"}]}
